In PubChem BioAssay AID504467 (National Center for Advancing Translational Sciences (NCATS), 2011):
Among all 330,000 compounds or so, about 7,700 (2.3%) were called active. The inconclusive results got no clear call from the source; some entries with a clear call stand among them for comparison. Calls come from the whole dose curve; as a rule, active = well fitted inhibition curve with a large enough effect; inconclusive = small, poorly fitted or top-dose-only effect, or effect the other way; inactive = flat fitted curve, though single readings scatter. Potencies beside an inconclusive call are fits to weak or partial responses and may not hold up.

Assay: qHTS screen for small molecules that inhibit ELG1-dependent DNA repair in human embryonic kidney (HEK293T) cells expressing luciferase-tagged ELG1; note: nearly all actives have a fitted effect of over 55% in size
Settings: HEK293T ELG1-luciferase reporter, luminescence, 16 h, DNA damage induced by 5-fluorouridine; activity change, negative = inhibition: at 46.1 µM (top of the series)
Summary of the method: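 DMSO vehicle served as the neutral condition. Each well held 2,000 cells given 5-fluorouridine plus compound; after 16 hr at 37 °C/5% CO2, ONE-Glo was added and luciferase measured 30 min later.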
% is set by controls: 0 for no effect and ±100 for the full control effect; potency is the fitted concentration of half-maximal effect.

| Structure (SMILES) | Potency | activity change, negative = inhibition |
| --- | --- | --- |
| COc1ccc(CCNS(=O)(=O)c2ccc(Br)s2)cc1 | inconclusive: 18.3 µM [activator, partial curve] | – |
| CCCCc1cc(C)c(S(=O)(=O)c2ccccc2C)c(=O)[nH]1 | inconclusive: 8.2 µM [inhibitor, partial curve, poor fit] | – |
| c1cnc(SCCCOc2ccc3ccccc3c2)nc1 | inconclusive: 18.4 µM [activator, partial curve] | – |
| Cc1ccc(S(=O)(=O)c2c(N)n(NC(=O)c3ccccc3C)c3nc4ccccc4nc23)cc1 | inconclusive: 20.6 µM [inhibitor, partial curve] | – |
| O=C(O)c1ccccc1C1Nc2ccccc2C(=O)N1CCCN1CCOCC1 (stereo not given) | inconclusive: 16.4 µM [activator, partial curve, poor fit] | – |
| CCOC(=O)c1cc(-c2ccccc2C)nn1Cc1cc(CC)no1 | inconclusive: 25.1 µM [activator, single point] | – |
| Cc1ccccc1CN1CCN(C(=O)c2ccco2)CC1 | inconclusive: 18.3 µM [activator, single point] | – |
| Cc1cc(C(=O)CN2C(=O)c3ccccc3C2=O)c(C)n1Cc1cccs1 | inconclusive: 1.84 µM [activator, full curve] | – |
| Fc1ccc(NC(=S)Nc2cc(-c3ccccc3)[nH]n2)cc1Cl | inconclusive: 20.6 µM [inhibitor, single point] | – |
| O=C(COC(=O)Cc1ccccc1)NCc1ccc2c(c1)OCO2 | – | inactive: 19.2% |
| CCOC(=O)c1nc2ccccc2s1 | inconclusive: 29.1 µM [activator, single point] | – |
| O=C(c1ccccc1)n1ccc(-c2cnc(-c3ccccc3)s2)n1 | inconclusive: 1.03 µM [activator, full curve] | – |
| CC(=O)Nc1ccc2nc(C3CC3)n(Cc3ccc(Cl)cc3)c(=O)c2c1 | inconclusive: 3.66 µM [activator, single point] | – |
| CC(NCc1ccc([N+](=O)[O-])cc1)C1COc2ccccc2O1 (stereo not given) | – | inactive: 0.885% |
| CC1CCN(C(=O)COC(=O)c2ccccc2NC(=O)c2ccco2)CC1 | inconclusive: 29.1 µM [activator, single point] | – |
| Cc1cc(C)nc(SCC(=O)N/N=C\C(Br)=C\c2ccccc2)n1 | – | inactive: -18% |
| CCOC(=O)N1CCN(C(=O)/C=C/c2ccc(OC)cc2)CC1 | – | inactive: 10.7% |
| CC1CCCCN1C(=S)NCCc1ccccc1 (stereo not given) | inconclusive: 20.6 µM [activator, partial curve] | – |
| COc1ccc(-c2cc(C(=O)Nc3ccc(O)cc3)c3ccccc3n2)cc1OC | inconclusive: 29.1 µM [inhibitor, single point] | – |
| COc1ccccc1C(=O)NN1C(=O)/C(=C/c2cccn2C)SC1=S | – | inactive: 0% |
| COc1ccccc1CCNC(=O)CCSc1nc(-c2ccco2)cc(C(F)(F)F)n1 | inconclusive: 20.6 µM [inhibitor, single point] | – |
| CC(C)c1ccc2c(c1)C(=O)NC(C)(C)C2 | inconclusive: 16.4 µM [activator, partial curve] | – |
| COc1ccc(Cc2nc3ccc(C(=O)N4C[C@@H](C)O[C@@H](C)C4)cc3o2)cc1OC | inconclusive: 20.6 µM [activator, partial curve] | – |

| Structure (SMILES) | Potency | activity change, negative = inhibition |
| --- | --- | --- |
| COc1ccccc1C(=O)NCCC(=O)NCC(c1ccco1)N1CCCCC1 (stereo not given) | – | inactive: 10.2% |
| CCC1=Nc2cc(C(=O)NCC3CCCO3)ccc2Sc2ccc(Br)cc21 (stereo not given) | inconclusive: 23.1 µM [inhibitor, single point] | – |
| Cc1ccc2c(c1)C1CN(C)CCC1N2C(=S)NC(=O)c1ccc(Br)cc1 (stereo not given) | inconclusive: 8.2 µM [inhibitor, partial curve] | – |
| Cc1ccc(S(=O)(=O)N(CCC(=O)NCc2ccc(S(N)(=O)=O)cc2)c2ccccc2)cc1 | – | inactive: 2.32% |
| COc1ccc(NC(=O)C2CC(c3c(F)cccc3Cl)=NO2)cc1 (stereo not given) | inconclusive: 14.6 µM [activator, partial curve] | – |
| O=C(c1ccc(C(F)(F)F)cc1)N1CCC(=O)N(C(COCc2ccc(Cl)cc2)Cc2ccccc2)CC1 (stereo not given) | inconclusive: 29.1 µM [inhibitor, single point] | – |
| CN(C)C(=O)c1cc(-c2ccccc2)no1 | inconclusive: 3.66 µM [activator, partial curve, poor fit] | – |
| NNC(=O)c1ccc(COc2cccc3ccccc23)o1 | inconclusive: 23.1 µM [inhibitor, single point] | – |
| COC(=O)CCSCC(=O)N1N=C(c2ccc(OC)cc2)CC1c1cccc(OC)c1OC (stereo not given) | inconclusive: 29.1 µM [inhibitor, single point] | – |
| N#Cc1ccccc1OCCCNC1CCCC1 | – | inactive: 1.35% |
| CCn1nc(NC(=O)CC(C)C)c2cc3cccc(C)c3nc21 | – | inactive: 14.1% |
| COc1ccc(Cc2nnc(SCC(=O)Nc3ccc(C)cc3C)[nH]c2=O)cc1 | – | inactive: 3.83% |
| CC(=O)c1ccc(C(C)(C)c2ccc(C(C)=O)s2)s1 | inconclusive: 0.82 µM [inhibitor, single point] | – |
| CCOC(=O)C1CCCN(c2nc(C)nc3c2oc2ccccc23)C1 (stereo not given) | inconclusive: 18.4 µM [inhibitor, partial curve] | – |
| Oc1[nH]c2ccccc2c1N=Nc1ccc(C(F)(F)F)cn1 | inconclusive: 18.4 µM [activator, partial curve] | – |
| C/C(=N\NC(=O)c1cccc(S(=O)(=O)N2CCCC2)c1)c1ccc(C)cc1 | inconclusive: 3.66 µM [inhibitor, single point] | – |
| C=CCNCCCCOc1ccccc1-c1ccccc1 | – | inactive: -9.37% |
| CCC(C(=O)OCC(=O)NCc1ccc2c(c1)OCO2)c1ccccc1 (stereo not given) | inconclusive: 29.1 µM [activator, single point] | – |
| Cc1ccc(C)c(OCCCNC2CCCC2)c1C | – | inactive: 5.49% |
| COC(=O)[C@H](Cc1ccccc1)NC(=O)NCc1ccccc1 | inconclusive: 18.3 µM [activator, single point] | – |
| CCCc1cc(=O)oc2cc(C)cc(OCC(=O)Nc3ccc(S(N)(=O)=O)cc3)c12 | inconclusive: 32.6 µM [activator, partial curve, poor fit] | – |
| O=S(=O)(c1ccccc1C(F)(F)F)N1CCN(CC(O)COc2ccccc2F)CC1 (stereo not given) | inconclusive: 18.3 µM [inhibitor, single point] | – |

Not a retest: entries from further up.

| Structure (SMILES) | Potency | activity change, negative = inhibition |
| --- | --- | --- |
| COc1ccccc1C(=O)NCCC(=O)NCC(c1ccco1)N1CCCCC1 (stereo not given) | – | inactive: 10.2% |
| CCC1=Nc2cc(C(=O)NCC3CCCO3)ccc2Sc2ccc(Br)cc21 (stereo not given) | inconclusive: 23.1 µM [inhibitor, single point] | – |
| Cc1ccc2c(c1)C1CN(C)CCC1N2C(=S)NC(=O)c1ccc(Br)cc1 (stereo not given) | inconclusive: 8.2 µM [inhibitor, partial curve] | – |
| Cc1ccc(S(=O)(=O)N(CCC(=O)NCc2ccc(S(N)(=O)=O)cc2)c2ccccc2)cc1 | – | inactive: 2.32% |
| COc1ccc(NC(=O)C2CC(c3c(F)cccc3Cl)=NO2)cc1 (stereo not given) | inconclusive: 14.6 µM [activator, partial curve] | – |
| O=C(c1ccc(C(F)(F)F)cc1)N1CCC(=O)N(C(COCc2ccc(Cl)cc2)Cc2ccccc2)CC1 (stereo not given) | inconclusive: 29.1 µM [inhibitor, single point] | – |
| CN(C)C(=O)c1cc(-c2ccccc2)no1 | inconclusive: 3.66 µM [activator, partial curve, poor fit] | – |
| NNC(=O)c1ccc(COc2cccc3ccccc23)o1 | inconclusive: 23.1 µM [inhibitor, single point] | – |
| COC(=O)CCSCC(=O)N1N=C(c2ccc(OC)cc2)CC1c1cccc(OC)c1OC (stereo not given) | inconclusive: 29.1 µM [inhibitor, single point] | – |
